Measurements reported in patent publication US20090298769A1.
Results are given in words; binding and its absence hold for the method and conditions named. In cells and extracts the contact can be indirect. Some binding calls cover weakened binding; strength is not graded here.

Amino acid sequences for entries named in this document (tags omitted). A change or cut given only in a name is not applied to a line headed by its entry. Residues count along the entry.
UniProt P35918, residues 20-1345: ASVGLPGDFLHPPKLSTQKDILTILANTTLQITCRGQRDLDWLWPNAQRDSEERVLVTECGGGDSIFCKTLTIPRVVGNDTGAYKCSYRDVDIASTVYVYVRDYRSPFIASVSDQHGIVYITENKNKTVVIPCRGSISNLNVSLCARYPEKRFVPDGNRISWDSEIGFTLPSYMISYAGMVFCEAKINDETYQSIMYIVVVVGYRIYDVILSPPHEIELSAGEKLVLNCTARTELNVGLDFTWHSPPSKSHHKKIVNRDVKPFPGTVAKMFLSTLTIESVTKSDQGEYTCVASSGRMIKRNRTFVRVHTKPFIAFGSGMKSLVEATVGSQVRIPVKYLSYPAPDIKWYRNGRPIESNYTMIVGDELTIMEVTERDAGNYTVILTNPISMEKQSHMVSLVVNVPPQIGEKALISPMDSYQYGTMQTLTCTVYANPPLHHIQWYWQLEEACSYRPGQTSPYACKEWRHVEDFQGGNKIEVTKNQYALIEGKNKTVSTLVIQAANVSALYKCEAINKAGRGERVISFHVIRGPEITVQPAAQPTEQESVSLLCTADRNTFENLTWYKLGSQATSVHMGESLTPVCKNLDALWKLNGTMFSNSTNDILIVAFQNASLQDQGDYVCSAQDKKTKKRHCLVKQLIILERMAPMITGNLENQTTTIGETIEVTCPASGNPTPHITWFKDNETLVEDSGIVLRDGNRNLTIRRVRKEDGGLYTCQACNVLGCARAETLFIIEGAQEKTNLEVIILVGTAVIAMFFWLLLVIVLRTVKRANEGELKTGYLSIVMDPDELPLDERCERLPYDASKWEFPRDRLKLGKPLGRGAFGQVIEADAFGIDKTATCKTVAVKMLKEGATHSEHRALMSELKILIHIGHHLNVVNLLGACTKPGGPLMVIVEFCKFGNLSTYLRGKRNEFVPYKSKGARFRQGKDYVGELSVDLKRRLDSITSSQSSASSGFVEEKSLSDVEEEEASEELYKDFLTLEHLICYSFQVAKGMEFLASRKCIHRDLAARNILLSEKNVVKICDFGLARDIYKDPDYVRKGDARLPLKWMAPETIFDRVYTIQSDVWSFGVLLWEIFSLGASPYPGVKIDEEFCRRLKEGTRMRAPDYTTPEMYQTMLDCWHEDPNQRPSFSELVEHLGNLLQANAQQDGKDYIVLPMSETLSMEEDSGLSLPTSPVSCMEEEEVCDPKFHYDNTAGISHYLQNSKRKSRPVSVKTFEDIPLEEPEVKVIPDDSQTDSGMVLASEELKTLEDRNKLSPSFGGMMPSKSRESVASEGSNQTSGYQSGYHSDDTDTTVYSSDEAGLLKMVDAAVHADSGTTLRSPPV
UniProt P06756: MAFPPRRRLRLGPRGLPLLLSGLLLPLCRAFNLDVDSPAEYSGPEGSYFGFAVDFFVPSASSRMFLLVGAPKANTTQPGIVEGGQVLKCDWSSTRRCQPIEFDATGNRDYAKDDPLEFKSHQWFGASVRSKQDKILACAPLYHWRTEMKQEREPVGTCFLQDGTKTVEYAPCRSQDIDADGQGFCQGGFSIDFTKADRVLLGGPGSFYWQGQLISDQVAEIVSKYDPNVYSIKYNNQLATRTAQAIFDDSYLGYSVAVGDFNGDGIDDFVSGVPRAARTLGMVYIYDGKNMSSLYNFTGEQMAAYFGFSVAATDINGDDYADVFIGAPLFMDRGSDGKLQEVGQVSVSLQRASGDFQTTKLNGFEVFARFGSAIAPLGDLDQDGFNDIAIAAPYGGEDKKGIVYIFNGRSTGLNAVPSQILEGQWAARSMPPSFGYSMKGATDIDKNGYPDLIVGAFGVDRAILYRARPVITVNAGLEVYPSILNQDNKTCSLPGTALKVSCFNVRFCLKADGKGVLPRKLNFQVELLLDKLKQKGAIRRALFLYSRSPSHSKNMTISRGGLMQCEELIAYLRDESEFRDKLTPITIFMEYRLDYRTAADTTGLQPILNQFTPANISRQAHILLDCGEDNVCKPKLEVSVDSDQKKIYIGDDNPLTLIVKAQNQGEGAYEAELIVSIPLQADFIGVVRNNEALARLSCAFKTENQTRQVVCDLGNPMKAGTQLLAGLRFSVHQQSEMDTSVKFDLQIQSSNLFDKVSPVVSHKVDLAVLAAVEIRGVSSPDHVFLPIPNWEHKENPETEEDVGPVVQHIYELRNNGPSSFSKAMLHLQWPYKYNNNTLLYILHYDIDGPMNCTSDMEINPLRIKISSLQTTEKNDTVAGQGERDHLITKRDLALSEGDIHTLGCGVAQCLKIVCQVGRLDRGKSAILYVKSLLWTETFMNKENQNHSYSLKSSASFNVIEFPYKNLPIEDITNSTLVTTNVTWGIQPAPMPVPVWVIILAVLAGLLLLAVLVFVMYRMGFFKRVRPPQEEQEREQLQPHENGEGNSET
UniProt P05106: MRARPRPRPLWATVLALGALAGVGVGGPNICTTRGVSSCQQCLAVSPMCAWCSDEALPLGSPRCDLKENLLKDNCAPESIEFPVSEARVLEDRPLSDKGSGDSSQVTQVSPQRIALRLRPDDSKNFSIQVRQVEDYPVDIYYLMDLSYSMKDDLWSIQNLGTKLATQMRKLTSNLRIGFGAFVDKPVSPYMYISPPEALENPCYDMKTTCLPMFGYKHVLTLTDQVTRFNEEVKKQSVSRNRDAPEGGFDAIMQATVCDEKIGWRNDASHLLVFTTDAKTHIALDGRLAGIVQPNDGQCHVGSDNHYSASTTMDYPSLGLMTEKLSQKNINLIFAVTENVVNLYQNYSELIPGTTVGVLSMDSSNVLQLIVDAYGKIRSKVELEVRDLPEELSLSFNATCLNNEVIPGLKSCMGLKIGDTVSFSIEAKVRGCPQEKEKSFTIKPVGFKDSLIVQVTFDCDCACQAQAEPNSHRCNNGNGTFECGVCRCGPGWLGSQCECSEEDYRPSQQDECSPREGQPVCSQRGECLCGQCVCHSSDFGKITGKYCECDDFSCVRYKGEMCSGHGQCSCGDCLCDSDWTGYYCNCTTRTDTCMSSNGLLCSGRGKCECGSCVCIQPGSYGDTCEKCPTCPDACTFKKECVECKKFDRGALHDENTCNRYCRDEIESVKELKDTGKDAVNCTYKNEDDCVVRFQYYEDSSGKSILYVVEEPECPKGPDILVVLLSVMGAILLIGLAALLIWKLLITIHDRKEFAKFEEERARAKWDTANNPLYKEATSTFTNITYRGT
UniProt P43406: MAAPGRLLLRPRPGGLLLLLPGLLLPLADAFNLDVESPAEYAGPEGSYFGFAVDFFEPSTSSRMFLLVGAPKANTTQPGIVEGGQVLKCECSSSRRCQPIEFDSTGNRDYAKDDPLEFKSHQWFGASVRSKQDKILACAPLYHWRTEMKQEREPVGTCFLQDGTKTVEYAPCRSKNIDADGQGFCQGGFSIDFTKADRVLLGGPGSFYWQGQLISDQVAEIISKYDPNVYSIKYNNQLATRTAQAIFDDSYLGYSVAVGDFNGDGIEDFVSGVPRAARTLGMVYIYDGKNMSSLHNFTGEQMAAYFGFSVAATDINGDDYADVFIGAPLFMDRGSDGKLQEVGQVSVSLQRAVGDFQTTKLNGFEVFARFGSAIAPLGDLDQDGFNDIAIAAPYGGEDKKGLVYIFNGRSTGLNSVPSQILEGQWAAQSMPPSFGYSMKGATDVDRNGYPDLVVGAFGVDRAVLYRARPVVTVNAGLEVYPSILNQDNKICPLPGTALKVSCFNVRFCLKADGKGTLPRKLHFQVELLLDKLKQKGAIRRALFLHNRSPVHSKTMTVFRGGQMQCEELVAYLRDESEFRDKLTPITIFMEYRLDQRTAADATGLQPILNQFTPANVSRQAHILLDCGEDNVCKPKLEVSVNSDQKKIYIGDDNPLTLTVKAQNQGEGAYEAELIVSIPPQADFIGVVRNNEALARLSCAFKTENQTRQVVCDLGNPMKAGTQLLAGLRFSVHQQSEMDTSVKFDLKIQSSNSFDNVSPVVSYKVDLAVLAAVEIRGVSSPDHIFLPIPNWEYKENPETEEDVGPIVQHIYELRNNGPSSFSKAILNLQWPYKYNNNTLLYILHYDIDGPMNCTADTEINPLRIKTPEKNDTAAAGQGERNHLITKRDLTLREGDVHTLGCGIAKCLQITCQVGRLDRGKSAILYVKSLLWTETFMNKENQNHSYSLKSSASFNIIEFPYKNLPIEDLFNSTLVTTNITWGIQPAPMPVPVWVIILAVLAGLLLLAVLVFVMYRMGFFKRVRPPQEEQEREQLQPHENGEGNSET
UniProt P35968, residues 20-1356: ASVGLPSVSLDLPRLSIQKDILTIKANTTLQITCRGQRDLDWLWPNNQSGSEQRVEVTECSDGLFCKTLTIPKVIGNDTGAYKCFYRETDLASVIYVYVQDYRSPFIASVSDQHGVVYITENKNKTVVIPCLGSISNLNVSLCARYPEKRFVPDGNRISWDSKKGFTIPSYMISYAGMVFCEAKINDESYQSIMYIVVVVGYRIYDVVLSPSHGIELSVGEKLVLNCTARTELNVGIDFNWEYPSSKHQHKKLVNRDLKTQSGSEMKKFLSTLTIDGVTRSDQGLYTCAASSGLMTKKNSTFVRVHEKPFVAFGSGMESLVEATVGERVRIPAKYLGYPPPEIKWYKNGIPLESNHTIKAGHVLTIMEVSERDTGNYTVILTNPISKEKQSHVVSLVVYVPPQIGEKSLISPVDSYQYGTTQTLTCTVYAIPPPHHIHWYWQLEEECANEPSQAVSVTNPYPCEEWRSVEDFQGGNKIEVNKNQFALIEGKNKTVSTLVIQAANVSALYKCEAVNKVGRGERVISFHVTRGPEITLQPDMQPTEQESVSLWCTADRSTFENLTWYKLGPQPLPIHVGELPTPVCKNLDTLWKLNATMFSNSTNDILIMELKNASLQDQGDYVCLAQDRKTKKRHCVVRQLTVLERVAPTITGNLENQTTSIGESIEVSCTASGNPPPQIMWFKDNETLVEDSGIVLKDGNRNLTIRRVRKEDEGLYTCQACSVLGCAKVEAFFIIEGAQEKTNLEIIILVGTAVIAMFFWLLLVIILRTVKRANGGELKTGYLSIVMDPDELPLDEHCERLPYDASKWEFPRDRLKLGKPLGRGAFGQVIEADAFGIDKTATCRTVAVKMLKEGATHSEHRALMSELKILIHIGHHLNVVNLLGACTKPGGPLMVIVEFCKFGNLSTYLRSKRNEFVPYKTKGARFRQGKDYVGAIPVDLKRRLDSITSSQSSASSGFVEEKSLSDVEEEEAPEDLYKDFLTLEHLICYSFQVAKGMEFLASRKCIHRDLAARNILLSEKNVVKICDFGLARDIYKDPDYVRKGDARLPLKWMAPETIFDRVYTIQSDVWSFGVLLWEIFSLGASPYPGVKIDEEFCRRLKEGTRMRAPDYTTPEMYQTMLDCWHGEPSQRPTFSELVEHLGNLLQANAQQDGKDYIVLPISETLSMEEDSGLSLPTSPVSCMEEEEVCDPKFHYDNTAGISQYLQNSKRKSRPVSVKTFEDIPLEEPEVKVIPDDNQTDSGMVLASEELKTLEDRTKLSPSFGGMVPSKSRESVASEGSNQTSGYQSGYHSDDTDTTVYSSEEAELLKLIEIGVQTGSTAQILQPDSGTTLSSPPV

Assays:
[1] = target: VEGFR-2 of mouse lung endothelial cells (mouse) (UniProt P35918); experiment: co-immunoprecipitation (anti-β3 IP, anti-VEGFR-2 blot), WT mouse lung EC
[2] = target: VEGFR-2 of mouse lung endothelial cells (mouse) (UniProt P35918); experiment: co-immunoprecipitation (anti-β3 IP, anti-VEGF receptor blot)
[3] = target: VEGFR-2 of mouse lung endothelial cells (mouse) (UniProt P35918); experiment: co-immunoprecipitation (anti-β3 IP, anti-VEGFR-2 blot), wild type mouse lung EC on vitronectin
[4] = target: T1, αvβ3 integrin on human endothelial cells (HUVEC; vessels of human prostate tissue) (human) (UniProt P06756+P05106); experiment: discussion of Example 5 (co-immunoprecipitation)
[5] = target: T1, αvβ3 integrin on human endothelial cells (HUVEC; vessels of human prostate tissue) (human); experiment: co-immunoprecipitation (anti-VEGFR-2 IP, anti-integrin β3 blot), HUVEC with VEGF

Substance	binding [1]	binding [2]	binding [3]	binding [4]	binding [5]
αvβ3 integrin, wild type, on mouse lung endothelial cells (from UniProt P43406 31-1044; O54890 26-787) (receptor)	binds	binds	binds		
VEGFR-2 of human endothelial cells (HUVEC) (from UniProt P35968 20-1356) (receptor)				binds	binds
